{
  "source": "PubChem BioAssay AID504834",
  "about": "(National Center for Advancing Translational Sciences (NCATS), 2011)",
  "note": "The campaign covered roughly 320,000 compounds. About 22,000 (6.9%) were called active. Inconclusive results, whose numbers are uncertain, are shown with a selection of clear calls. Calls come from the whole dose curve; as a rule, active = well fitted inhibition curve with a large enough effect; inconclusive = small, poorly fitted or top-dose-only effect, or another doubt; inactive = no such curve, though single readings can be large or run the other way. Potencies beside an inconclusive call are fits to weak or partial responses and may not hold up. % is set by controls: 0 for no effect and ±100 for the full control effect; potency is the fitted concentration of half-maximal effect.",
  "data": [
    {"experiment": "Primary qHTS for delayed death inhibitors of the malarial parasite plastid, 96 hour incubation", "conditions": "P. falciparum luciferase reporter growth; series mostly up to 28.7 µM; activity change, negative = inhibition: at the top concentration", "method_in_brief": "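96 h incubation, 37 C, 5% CO2, of luciferase-reporter P. falciparum-infected RBCs (2% hematocrit, 0.05% parasitemia final) with test compounds; endpoint luminescence.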", "values": [
      {"compound": "COc1cccc(CNC(=O)c2ccccc2C(=O)NC(C)(C)C(=O)NCc2cccc(OC)c2)c1", "Potency": "inconclusive: 18.5 µM [inhibitor, partial curve, poor fit]"},
      {"compound": "CC(=O)OC1=C(C#N)Cn2ccc3cccc1c32", "Potency": "inconclusive: 18.5 µM [inhibitor, single point]"},
      {"compound": "NC(=O)c1ccccc1NC(=O)CN1CCCCCC1", "Potency": "inconclusive: 9.28 µM [inhibitor, partial curve, poor fit]"},
      {"compound": "O=C(CCc1nnc2n(Cc3ccc(Cl)cc3)c(=O)c3ccccc3n12)NCCN1CCCC1", "Potency": "inconclusive: 18.5 µM [inhibitor, single point]"},
      {"compound": "Cc1ccc(/C=C2/C(=O)N(c3ccccc3)C(=S)N2C)o1", "activity change, negative = inhibition": "inactive: -8.12%"},
      {"compound": "CCCC(=O)Nc1nn(CCC)c2nc3ccccc3cc12", "Potency": "inconclusive: 10.4 µM [inhibitor, single point]"},
      {"compound": "Cc1ccc(S(=O)(=O)NC(C(=O)Oc2ccc3ccc(=O)oc3c2)c2ccccc2)cc1", "note": "(stereo not drawn)", "activity change, negative = inhibition": "inactive: 30.1%"},
      {"compound": "O=C(NCC1CCCO1)c1ccc(-c2ccccc2Cl)o1", "note": "(stereo not drawn)", "activity change, negative = inhibition": "inactive: 89.2%"},
      {"compound": "Cc1ccc(S(=O)(=O)N2CCN(c3ccc4nnc(-c5ccccc5)n4n3)CC2)cc1", "Potency": "inconclusive: 3.29 µM [inhibitor, partial curve, poor fit]"},
      {"compound": "COc1cc(C(=O)NC2CC(C)(C)Cc3c2cnn3-c2ccccc2)cc(OC)c1OC", "note": "(stereo not drawn)", "Potency": "inconclusive: 18.5 µM [inhibitor, single point]"},
      {"compound": "CCOc1ccc(S(=O)(=O)NC2CC2)cc1", "Potency": "inconclusive: 18.5 µM [inhibitor, single point]"},
      {"compound": "O=C(O)c1ccc2c(c1)C(=O)N([C@H](Cc1cccc3ccccc13)C(=O)O)C2=O", "activity change, negative = inhibition": "inactive: 11.4%"},
      {"compound": "Cc1ccc2[nH]c(=O)c(CN(CC3CCCO3)C(=O)c3ccco3)cc2c1", "note": "(stereo not drawn)", "Potency": "inconclusive: 18.5 µM [inhibitor, single point]"},
      {"compound": "CCOC(=O)CN1C(=O)CC(c2ccccc2)C1=O", "note": "(stereo not drawn)", "Potency": "inconclusive: 3.29 µM [inhibitor, full curve]"},
      {"compound": "COC(=O)c1cc(=O)n(Cc2ccc3c(c2)OCO3)c(=Nc2ccc(F)c(Cl)c2)s1", "Potency": "inconclusive: 7.38 µM [inhibitor, partial curve, poor fit]"},
      {"compound": "O=C(NC1CCN(S(=O)(=O)c2ccc(F)cc2)CC1)c1ccc(F)cc1", "Potency": "active: 11.7 µM"},
      {"compound": "CC[C@H](C)C(C(=O)N1CCN(C(=O)OC(C)(C)C)CC1)n1cc(C(Cc2ccc(O)cc2)NC(=O)OC(C)(C)C)nn1", "note": "(stereo partly drawn)", "Potency": "active: 1.65 µM"},
      {"compound": "CC(=O)C(C(c1ccccc1)c1c[nH]c2ccccc12)[N+](=O)[O-]", "note": "(stereo not drawn)", "activity change, negative = inhibition": "inactive: -8.5%"},
      {"compound": "O=C(OCC(=O)N1CCOCC1)c1cc(S(=O)(=O)N2CCOCC2)c(Cl)cc1Cl", "Potency": "inconclusive: 18.5 µM [inhibitor, single point]"},
      {"compound": "Cc1cc(NC(=O)COc2coc(CN3CCN(c4ccc(F)cc4)CC3)cc2=O)no1", "Potency": "inconclusive: 10.4 µM [inhibitor, partial curve]"},
      {"compound": "O=C(NCC(c1ccco1)N1CCc2ccccc2C1)C(=O)Nc1ccccc1F", "note": "(stereo not drawn)", "activity change, negative = inhibition": "inactive: 52.2%"},
      {"compound": "CN1CCc2c(sc3nc(NCCO)n(-c4cccc(Cl)c4)c(=O)c23)C1", "Potency": "active: 4.65 µM"},
      {"compound": "CN(CC(=O)Nc1ccc(F)cc1)C(=O)Cc1ccsc1", "activity change, negative = inhibition": "inactive: -2.2%"},
      {"compound": "Cc1c(Br)c([N+](=O)[O-])nn1CC(=O)Nc1sc2c(c1C(=O)OC(C)C)CCCC2", "activity change, negative = inhibition": "inactive: 229%"},
      {"compound": "O=C(NCc1ccc2c(c1)OCO2)c1cc(S(=O)(=O)N2CCCCC2)ccc1F", "Potency": "inconclusive: 3.29 µM [inhibitor, partial curve, poor fit]"},
      {"compound": "CC(OC(=O)CNC(=O)c1ccc(Br)cc1)C(=O)NC1CCCCC1C", "note": "(stereo not drawn)", "activity change, negative = inhibition": "inactive: -21.7%"},
      {"compound": "CCn1cc(CCC(=O)NCCc2ccccc2)c2ccccc21", "Potency": "inconclusive: 13.1 µM [inhibitor, single point]"},
      {"compound": "O=C(CSc1ncnc2c1cnn2Cc1ccccc1)Nc1ccc2c(c1)OCCO2", "Potency": "inconclusive: 18.5 µM [inhibitor, single point]"},
      {"compound": "CC(Oc1ccc(Cl)cc1Cl)c1nc(-c2ccc(NC(=O)c3ccccn3)cc2)no1", "note": "(stereo not drawn)", "activity change, negative = inhibition": "inactive: -25%"},
      {"compound": "O=C(NCc1ccccc1C(F)(F)F)C12CN(Cc3ccccc3)CC1C(c1ccc([N+](=O)[O-])cc1)=NO2", "note": "(stereo not drawn)", "Potency": "inconclusive: 7.38 µM [inhibitor, partial curve, poor fit]"},
      {"compound": "COc1ccc2cc([C@H](C)C(=O)N(C)Cc3ccccc3N3CCCC3)ccc2c1", "Potency": "active: 3.7 µM"},
      {"compound": "Cc1cc(N2CCOCC2)nc(SCC(=O)c2ccccc2)n1", "Potency": "inconclusive: 18.5 µM [inhibitor, single point]"},
      {"compound": "COc1c([N+](=O)[O-])c(=O)n(-c2ccccc2)c2ccccc12", "activity change, negative = inhibition": "inactive: 35.4%"},
      {"compound": "COc1cccc(CN(Cc2ccco2)C(c2ccc(F)cc2)c2nnnn2C(C)(C)C)c1", "note": "(stereo not drawn)", "Potency": "inconclusive: 1.31 µM [inhibitor, partial curve, poor fit]"},
      {"compound": "O=C(CCS(=O)(=O)c1ccccc1)Nc1ccc(N2CCN(Cc3ccccc3)CC2)cc1", "Potency": "inconclusive: 8.28 µM [inhibitor, partial curve]"},
      {"compound": "CCOC(=O)c1c(NC(=O)C2CCCCC2)sc2c1CCN(CC)C2", "activity change, negative = inhibition": "inactive: -14.5%"},
      {"compound": "COc1ccc(N(CC(=O)NCc2ccc(C)cc2)S(=O)(=O)c2ccccc2[N+](=O)[O-])c(OC)c1", "activity change, negative = inhibition": "inactive: 0%"},
      {"compound": "CCn1nnnc1SCC(=O)c1cccc(OC)c1", "activity change, negative = inhibition": "inactive: 13%"},
      {"compound": "Cc1cc(C)nc(SCC(=O)Nc2ccc(S(=O)(=O)Nc3onc(C)c3C)cc2)n1", "Potency": "inconclusive: 18.5 µM [inhibitor, single point]"},
      {"compound": "O=C(Nc1ccc(Cl)cn1)Nc1cccs1", "Potency": "inconclusive: 18.5 µM [inhibitor, single point]"},
      {"compound": "COC(=O)c1ccc(Nc2ncnc3c2cnn3-c2cccc(C)c2)cc1", "Potency": "inconclusive: 1.85 µM [inhibitor, partial curve, poor fit]"},
      {"compound": "N#C/C(=C\\Nc1ccc2c(c1)OCCO2)c1nc(-c2ccccc2)cs1", "activity change, negative = inhibition": "inactive: 49.6%"},
      {"compound": "COc1cc2cc(CN(CCN3CCOCC3)C(=O)Nc3ccc(F)cc3)c(=O)[nH]c2cc1OC", "activity change, negative = inhibition": "inactive: 0.0157%"},
      {"compound": "Cc1ccc(-c2nc3ccccc3c(=O)n2-c2ccncc2)cc1", "Potency": "inconclusive: 14.7 µM [inhibitor, single point]"},
      {"compound": "CCC(COC)NC(=O)CCc1nnc(Cc2c[nH]c3ccccc23)o1", "note": "(stereo not drawn)", "Potency": "active: 13.1 µM"},
      {"compound": "COCCCNc1ncnc2c1cnn2-c1ccc(C)cc1C", "activity change, negative = inhibition": "inactive: 8.74%"},
      {"compound": "CC(C(=O)Nc1ccccc1Sc1ccccc1)N(c1ccccc1)S(C)(=O)=O", "note": "(stereo not drawn)", "Potency": "inconclusive: 16.5 µM [inhibitor, partial curve, poor fit]"},
      {"compound": "COc1ccc(CNC(=S)Nc2cccc(C)c2C)cc1", "activity change, negative = inhibition": "inactive: 30.8%"},
      {"compound": "Cc1ccc(-c2nn(-c3ccccc3)cc2C(=O)Nc2ccc(C(=O)O)cc2)cc1", "Potency": "inconclusive: 10.4 µM [inhibitor, single point]"},
      {"compound": "COc1cccc(-n2c(C)nc3c(cnn3-c3ccc(C)cc3)c2=O)c1", "Potency": "inconclusive: 0.037 µM [inhibitor, full curve, poor fit]"},
      {"compound": "Cc1ccc(S(=O)(=O)N(C)c2ccc(C(=O)NCC(c3ccco3)N(C)C)cc2)cc1", "note": "(stereo not drawn)", "Potency": "inconclusive: 6.57 µM [inhibitor, partial curve, poor fit]"},
      {"compound": "CCN(CC)CCNC(=O)c1cc2cc(Br)ccc2s1", "Potency": "inconclusive: 8.28 µM [inhibitor, single point]"},
      {"compound": "O=Cc1cccn1-c1c(C(=O)O)cnn1-c1ccccc1", "Potency": "active: 10.4 µM"},
      {"compound": "CC(C)c1nnc(SCC(=O)NC2CCCC2)n1C", "activity change, negative = inhibition": "inactive: 33.1%"},
      {"compound": "Cc1cc[n+](Cc2ccccc2)cc1", "Potency": "active: 9.28 µM"},
      {"compound": "COc1ccccc1OC(C)C(=O)O", "note": "(stereo not drawn)", "Potency": "inconclusive: 0.0415 µM [inhibitor, full curve, poor fit]"},
      {"compound": "Cc1ncc(S(=O)(=O)C(C)(C)C)c(N)n1", "activity change, negative = inhibition": "inactive: 12.4%"},
      {"compound": "CCCCN(Cc1nc2ccccc2c(=O)[nH]1)C(=O)COc1ccc(F)cc1Cl", "Potency": "active: 3.7 µM"},
      {"compound": "Cn1c(Oc2ccc(F)cc2F)c(C=O)c2ccccc21", "Potency": "inconclusive: 10.4 µM [inhibitor, partial curve, poor fit]"},
      {"compound": "NC(=O)c1ccccc1NC(=O)COC(=O)C1(c2ccccc2)CC1", "activity change, negative = inhibition": "inactive: -14%"},
      {"compound": "COc1ccc(NC2CCCN(C(=O)CCOc3ccccc3)C2)cc1", "note": "(stereo not drawn)", "Potency": "inconclusive: 2.62 µM [inhibitor, full curve]"},
      {"compound": "CCOC(=O)CCc1c(C)c2c(C)nn(-c3ccccc3)c2[nH]c1=O", "Potency": "inconclusive: 18.5 µM [inhibitor, single point]"},
      {"compound": "CC1CCN(CC(O)COc2ccc(-c3ccccc3)cc2)CC1", "note": "(stereo not drawn)", "activity change, negative = inhibition": "inactive: -15.7%"},
      {"compound": "NS(=O)(=O)c1ccc(NC(=S)N2CCCC2)cc1", "activity change, negative = inhibition": "inactive: 6.43%"},
      {"compound": "O=C(O)CSCC(=O)N1CCN(Cc2ccc3c(c2)OCO3)CC1", "activity change, negative = inhibition": "inactive: 0.334%"},
      {"compound": "O=C(O)c1ccc(NC(=S)NCc2ccccc2)cc1", "Potency": "inconclusive: 18.5 µM [inhibitor, single point]"},
      {"compound": "CC(=O)CCS(=O)(=O)c1ccc(Oc2ccc(S(=O)(=O)CCC(C)=O)cc2)cc1", "Potency": "inconclusive: 10.4 µM [inhibitor, single point]"},
      {"compound": "O=C(c1cccc(C(=O)N2CCN(c3ccc(F)cc3)CC2)c1)N1CCN(c2ccc(F)cc2)CC1", "Potency": "active: 9.28 µM"},
      {"compound": "Cc1sc2nc(CN3CCCC3)nc(N3CCN(C(=O)c4ccco4)CC3)c2c1C", "Potency": "active: 3.7 µM"},
      {"compound": "Cc1cc(C)c(NC(=O)COC(=O)c2cc([N+](=O)[O-])ccc2N2CCOCC2)c(C)c1", "activity change, negative = inhibition": "inactive: 21.2%"},
      {"compound": "CSc1nc(C)nc2c1c(=O)n(C)c(=O)n2C", "activity change, negative = inhibition": "inactive: 15.9%"},
      {"compound": "COc1cccc(N2CCN(C(=O)CN3C(=O)NC(C)(c4ccc5ccccc5c4)C3=O)CC2)c1", "note": "(stereo not drawn)", "Potency": "inconclusive: 5.86 µM [inhibitor, partial curve, poor fit]"},
      {"compound": "COc1ccc(C/C(C)=N/NC(=S)Nc2ccc(C(C)C)cc2)cc1", "activity change, negative = inhibition": "inactive: 23.3%"}
    ]}
  ]
}
